The text below walks through data of article doi:10.1101/2025.04.11.648483.

Amino acid sequences for entries named in this document (tags omitted). A change or cut given only in a name is not applied to a line headed by its entry.
UniProt O01819: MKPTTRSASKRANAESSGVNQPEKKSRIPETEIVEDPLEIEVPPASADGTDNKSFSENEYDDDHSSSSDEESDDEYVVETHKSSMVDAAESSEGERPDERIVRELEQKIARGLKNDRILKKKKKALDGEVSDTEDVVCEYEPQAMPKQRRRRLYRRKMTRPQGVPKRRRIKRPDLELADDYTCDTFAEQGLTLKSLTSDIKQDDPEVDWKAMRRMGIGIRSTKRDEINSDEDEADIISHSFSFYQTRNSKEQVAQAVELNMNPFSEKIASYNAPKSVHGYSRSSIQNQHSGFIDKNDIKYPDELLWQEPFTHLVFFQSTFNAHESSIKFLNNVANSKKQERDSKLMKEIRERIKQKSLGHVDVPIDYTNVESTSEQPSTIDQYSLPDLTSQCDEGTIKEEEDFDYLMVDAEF
UniProt A0A0K3AR81: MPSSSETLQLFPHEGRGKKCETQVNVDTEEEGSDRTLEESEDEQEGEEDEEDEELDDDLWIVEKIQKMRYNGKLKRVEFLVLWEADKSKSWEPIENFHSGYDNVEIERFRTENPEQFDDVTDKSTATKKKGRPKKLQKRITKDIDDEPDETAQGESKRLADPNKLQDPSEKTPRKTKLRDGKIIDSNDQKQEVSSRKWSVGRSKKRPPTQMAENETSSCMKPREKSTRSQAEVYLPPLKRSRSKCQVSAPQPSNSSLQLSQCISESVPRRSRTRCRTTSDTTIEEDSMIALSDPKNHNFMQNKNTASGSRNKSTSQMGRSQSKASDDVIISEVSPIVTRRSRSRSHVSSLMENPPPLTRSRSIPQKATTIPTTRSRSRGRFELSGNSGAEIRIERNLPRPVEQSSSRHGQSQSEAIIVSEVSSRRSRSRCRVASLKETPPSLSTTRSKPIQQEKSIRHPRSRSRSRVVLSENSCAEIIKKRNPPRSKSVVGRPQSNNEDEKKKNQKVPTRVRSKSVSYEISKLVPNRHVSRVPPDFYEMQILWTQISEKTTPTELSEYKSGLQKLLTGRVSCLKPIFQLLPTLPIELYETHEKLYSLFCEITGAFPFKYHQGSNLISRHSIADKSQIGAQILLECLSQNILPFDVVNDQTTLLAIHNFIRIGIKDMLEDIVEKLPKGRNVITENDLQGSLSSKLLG

These are yes or no findings as the source states them, for the method shown. Binding calls can cover weak binding; strength is not graded here. For part of these data: Where a sequence is shown, tags or fusion partners need not be part of it.

What all share (assay): two-hybrid
In assay [1] the target is T1, PRDE-1 (yeast two-hybrid fusion) (C. elegans) (UniProt O17828).
T1 sequence: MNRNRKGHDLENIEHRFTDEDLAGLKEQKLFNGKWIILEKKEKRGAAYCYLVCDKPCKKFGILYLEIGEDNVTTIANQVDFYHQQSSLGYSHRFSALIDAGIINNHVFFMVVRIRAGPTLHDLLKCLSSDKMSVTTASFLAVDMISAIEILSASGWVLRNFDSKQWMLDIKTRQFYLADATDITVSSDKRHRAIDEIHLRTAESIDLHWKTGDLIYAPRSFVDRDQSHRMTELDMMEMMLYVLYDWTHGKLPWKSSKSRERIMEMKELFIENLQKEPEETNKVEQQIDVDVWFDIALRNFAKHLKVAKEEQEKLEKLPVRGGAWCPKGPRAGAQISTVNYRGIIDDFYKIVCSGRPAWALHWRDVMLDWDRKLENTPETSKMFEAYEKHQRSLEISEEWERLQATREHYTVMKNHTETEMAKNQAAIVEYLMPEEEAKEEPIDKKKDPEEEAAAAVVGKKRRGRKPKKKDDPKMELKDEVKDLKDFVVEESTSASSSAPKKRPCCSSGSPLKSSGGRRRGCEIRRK

The target in assay [2] is TOFU-4 (yeast two-hybrid fusion) (C. elegans) (UniProt O01819).
Assay [3] addresses T2, TAF-12 histone-fold domain (yeast two-hybrid fusion) (C. elegans) (UniProt Q9U226).
T2 sequence: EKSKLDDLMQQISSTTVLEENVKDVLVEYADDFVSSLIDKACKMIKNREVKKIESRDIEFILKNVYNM

Regarding “TOFU-4 (yeast two-hybrid fusion) (from UniProt O01819)”, the binding entry in assay [1] is recorded as “binds”.

With “UAD-2 (yeast two-hybrid fusion) (from UniProt A0A0K3AR81 1-696)”, the binding entry in assay [2] was “binds”. Regarding “UAD-2 C-terminal domain (yeast two-hybrid fusion) (C. elegans) (domain or fragment)”, the binding entry in assay [3] is “binds”.
